Measured values taken from PubChem BioAssay AID1347138 (National Center for Advancing Translational Sciences (NCATS), 2019).
Inconclusive results, whose numbers are uncertain, are shown with a selection of clear calls. Where the call is inconclusive, the potency comes from a doubtful curve fit. Calls of active or inactive are those of the source. The call rests on the fitted dose curve; in most records, active means well fitted inhibition curve with a large enough effect; inconclusive means small, poorly fitted or top-dose-only effect; inactive means no such curve, though single readings can be large or run the other way. Starred links: 1 amine or outer side, 2 acyl side, 3 side chain; linkers in the order of their positions; H or OH if unused. Positions of bridges follow the written chain, without caps; N, C: chain ends. Non-standard residues stand in square brackets, D forms with d. Residues, ends and D or L forms follow the SMILES beside them. Chains are numbered I, II in the order given. Actinocin(9to1) = Cc1c2oc3c(C)ccc(C(=O)[*:1])c3nc-2c(C(=O)[*:2])c(N)c1=O; NMeV = CN[C@H](C(=O)O)C(C)C; Sar = CNCC(=O)O

Experiment: qHTS of pediatric cancer cell lines to identify multiple opportunities for drug repurposing: Orthogonal 3D caspase screen for TC32 cells
Conditions: TC32 3D spheroids, caspase-3/7 fluorescence imaging, 24 h; series mostly up to 30.7 µM
Text: Drug repurposing or repositioning has been offered as a strategy for drug development in oncology programs. This approach has special potential for childhood cancers and other rare or orphan diseases, where the expected return on new drug development has been a disincentive to pharmaceuticals. […] In this project we exploit the poly-pharmacology of drugs to discover new indications via phenotypic screening of a panel of 19 well-characterized cell lines derived from solid tumors seen in children and adolescents. The goal is to identify approved drugs with previously unrecognized anticancer properties that has the potential to reveal new mechanisms and biological processes involved in carcinogenesis or drug resistance. We employed a titration-based paradigm (quantitative high-throughput screening or qHTS), where all compounds were tested at multiple concentrations for their effect on cell viability. Concentration-response curves (CRCs) were derived directly from the primary screen, and both potency and efficacy values were used to identify compounds with robust bioactivity profiles. […] These two assays will be used to validate active compounds and assess the correlation of compound's potency in 2D vs 3D cultures on selected cell lines. Assay Submitter: Nathalia J. Martinez, National Center for Advancing Translational Sciences, National Institutes of Health, Rockville, MD, USA; email: natalia.martinez@nih.gov Shen, M et al. Quantitative high-throughput phenotypic screening of pediatric cancer cell lines identifies multiple opportunities for drug repurposing. Oncotarget 2017 Dec 19;9(4):4758-4772. PMID 29435139.
The cells were obtained from University of North Carolina (UNC), Pediatric Preclinical Testing Program (PPT), and Coriell Institute (CI). qHTS apoptosis assay in 3D cultures: For the apoptosis assay, cells were assayed in phenol red-free growth media at a density of 1,000 cells/well. Thirty microliters of cells were dispensed into 384-well, ULA, round bottom plates (Corning) using a Multidrop dispenser. Plates were spun down at 1,000 rpm for 1 min and incubated at 37 C, 5% CO2, under a humidified atmosphere for 24 hours to allow spheroid formation. Ninety-two nanoliter of compounds and controls were subsequently transferred via GNF Pintool. Plates were sealed using a breathable seal (Diversified Biotech, Dedham, MA) and incubated for 24 hours at 37C before addition of CellEvent Caspase-3/7 green detection reagent (TheremoFisher Scientific). Staurosporine at final concentrations of 3 µM was used as positive control. Spheroids were imaged using bright-field and green (EX: […]) filters and analyzed with the Celigo Tumorsphere 1+2 application software. Spheroids were first identified using bright-field segmentation, and the average fluorescent intensity of the green channel was used to quantify caspase activation as percent activity based on neutral control DMSO and positive control.

Row | SMILES | Potency
1 | COC(=O)Nc1nc2ccc(C(=O)c3ccc(F)cc3)cc2[nH]1 | inconclusive: 5.11 µM [inhibitor, partial curve]
2 | CCCCc1nc2cc(C=CC(=O)NO)ccc2n1CCN(CC)CC | inconclusive: 3.62 µM [inhibitor, partial curve]
3 | Cc1c2oc3c(C)ccc(C(=O)N[C@@H]4C(=O)N[C@H](C(C)C)C(=O)N5CCC[C@H]5C(=O)N(C)CC(=O)N(C)[C@@H](C(C)C)C(=O)O[C@@H]4C)c3nc-2c(C(=O)N[C@@H]2C(=O)N[C@H](C(C)C)C(=O)N3CCC[C@H]3C(=O)N(C)CC(=O)N(C)[C@@H](C(C)C)C(=O)O[C@@H]2C)c(N)c1=O (I: T[dV]P[Sar][NMeV] / II: T[dV]P[Sar][NMeV]; ester I:1-I:C, II:1-II:C; linker I:N-II:N via Actinocin(9to1)) | inconclusive: 0.181 µM [inhibitor, full curve, poor fit]
4 | COc1cc([C@@H]2c3cc4c(cc3C(O[C@@H]3O[C@@H]5CO[C@@H](c6cccs6)OC5[C@H](O)[C@H]3O)C3COC(=O)[C@@H]32)OCO4)cc(OC)c1O (stereo not given in full) | inconclusive: 0.288 µM [inhibitor, full curve]
5 | C=C1C(=CC=C2CCC[C@]3(C)[C@@H]([C@H](C)C=C[C@H](C)C(C)C)CC[C@@H]23)C[C@@H](O)C[C@@H]1O | inactive
6 | CC1(C)O[C@@H]2C[C@@H]3[C@H]4C[C@@H](F)C5=CC(=O)C=C[C@]5(C)[C@@]4(F)[C@@H](O)C[C@]3(C)[C@]2(C(=O)CO)O1 | inactive
7 | Nc1ccn([C@@H]2O[C@H](CO)[C@H](O)C2(F)F)c(=O)n1 | inactive
8 | COc1cccc2c1C(=O)c1c(O)c3c(c(O)c1C2=O)C[C@@](O)(C(=O)CO)C[C@@H]3O[C@H]1C[C@H](N)[C@H](O)[C@H](C)O1 | active: 1.02 µM
9 | COc1cc([C@@H]2c3cc4c(cc3[C@@H](O[C@@H]3O[C@@H]5CO[C@@H](C)O[C@@H]5[C@H](O)[C@@H]3O)[C@H]3COC(=O)[C@H]23)OCO4)cc(OC)c1O | inconclusive: 2.56 µM [inhibitor, full curve]
10 | C[C@H]1[C@@H](OC(=O)CCC(=O)O)O[C@@H]2O[C@@]3(C)CC[C@@H]4[C@H](C)CC[C@@H]1[C@@]24OO3 | inconclusive: 0.81 µM [inhibitor, full curve, poor fit]
11 | Nc1nc2c(ncn2COCCO)c(=O)[nH]1 | inactive
12 | CC(=O)O[C@H]1C(=O)[C@@]2(C)[C@H]([C@H](OC(=O)c3ccccc3)[C@]3(O)C[C@H](OC(=O)[C@H](O)[C@@H](NC(=O)c4ccccc4)c4ccccc4)C(C)=C1C3(C)C)[C@]1(OC(C)=O)CO[C@@H]1C[C@@H]2O | inconclusive: 0.0288 µM [inhibitor, full curve]
13 | COC1=C2C[C@@H](C)C[C@H](OC)[C@@H](O)[C@@H](C)C=C(C)[C@H](OC(N)=O)[C@@H](OC)C=CC=C(C)C(=O)NC(=CC1=O)C2=O | inconclusive: 2.56 µM [inhibitor, full curve]
14 | COc1ccc(-c2nc(N3CCOCC3)c3sc(CN(C)c4ncc(C(=O)NO)cn4)cc3n2)cn1 | inactive
15 | COc1ccc(-c2ccc3ncc4c(c3c2)n(-c2ccc(N3CCNCC3)c(C(F)(F)F)c2)c(=O)n4C)cn1 | active: 0.498 µM
16 | COc1cccc2c1C(=O)c1c(O)c3c(c(O)c1C2=O)C[C@@](O)(C(=O)CO)C[C@@H]3O[C@H]1C[C@H](N)[C@@H](O)[C@H](C)O1 | active: 1.02 µM
17 | CCc1nc(N)nc(N)c1-c1ccc(Cl)cc1 | inactive
18 | CC(NCc1ccc2c(c1)nc(NC(=O)c1ccc(-c3cn[nH]c3)s1)n2CC(C)(C)O)C(C)(C)C (stereo not given) | active: 1.44 µM
19 | C[C@]12C=CC(=O)C=C1CC[C@H]1[C@@H]3C[C@@H](O)[C@](O)(C(=O)CO)[C@@]3(C)C[C@H](O)[C@@]12F | inconclusive: 8.1 µM [inhibitor, partial curve]
20 | COC(=O)Nc1nc2ccc(S(=O)c3ccccc3)cc2[nH]1 (stereo not given) | inconclusive: 1.02 µM [inhibitor, full curve]
21 | CC(C)Cc1ccc(C(C)C(=O)O)cc1 (stereo not given) | inactive
22 | COC(=O)Nc1nc2ccc(Sc3ccccc3)cc2[nH]1 | active: 11.4 µM
23 | COc1cc([C@@H]2c3cc4c(cc3[C@H](O)[C@H]3COC(=O)[C@H]23)OCO4)cc(OC)c1OC | active: 0.0574 µM
24 | COc1cc(C(C)=O)ccc1OCCCN1CCC(c2noc3cc(F)ccc23)CC1 | inactive
25 | Cn1cc(CNCC2CCN(c3ncc(C(=O)NO)cn3)CC2)c2ccccc21 | inconclusive: 2.56 µM [inhibitor, partial curve]

Look-ups from above:
Value for Nc1nc2c(ncn2COCCO)c(=O)[nH]1 under Potency: inactive
Value for COc1cc(C(C)=O)ccc1OCCCN1CCC(c2noc3cc(F)ccc23)CC1 under Potency: inactive
